# Measurements from the supplement of paper PMC8728848.
# Some of the results follow.
# B1: DC-Sign-R (Homo sapiens), Q9H2X3 (protein)
# chain: MSDSKEPRVQQLGLLEEDPTTSGIRLFPRDFQFQQIHGHKSSTGCLGHGALVLQLLSFMLLAGVLVAILVQVSKVPSSLSQEQSEQDAIYQNLTQLKAAVGELSEKSKLQEIYQELTQLKAAVGELPEKSKLQEIYQELTRLKAAVGELPEKSKLQEIYQELTRLKAAVGELPEKSKLQEIYQELTRLKAAVGELPEKSKLQEIYQELTELKAAVGELPEKSKLQEIYQELTQLKAAVGELPDQSKQQQIYQELTDLKTAFERLCRHCPKDWTFFQGNCYFMSNSQRNWHDSVTACQEVRAQLVVIKTAEEQNFLQLQTSRSNRFSWMGLSDLNQEGTWQWVDGSPLSPSFQRYWNSGEPNNSGNEDCAEFSGSGWNDNRCDVDNYWICKKPAACFRDE
# Key:
# Assay in all cases: glycan array binding signal (z-score within array); higher = stronger binding
# Conditions in all cases: glycan notation: IUPAC condensed, linker removed
# [1] = biological target: GlcNAc(b1-4)GlcNAc(b1-4)GlcNAc(b1-4)GlcNAc(b1-4)GlcNAc
# Procedure, shortened: (§1)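 The binding signal is a Z-score computed within each array. Data were drawn from 3228 arrays in the Consortium for Functional Glycomics database, restricted to those with a known protein sequence. Scores were averaged over arrays of the same protein sequence at different concentrations or buffers, and over linkers, and negative values can be taken as non-binding.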
# [2] = biological target: GlcNAc(b1-4)GlcNAc(b1-4)GlcNAc(b1-4)GlcNAc(b1-4)GlcNAc(b1-4)GlcNAc
# Procedure, shortened: as §1
# [3] = biological target: GlcNAc(b1-4)[GlcNAc(b1-6)]GalNAc
# Procedure, shortened: as §1
# [4] = biological target: GlcNAc(b1-6)Gal(b1-4)GlcNAc
# Procedure, shortened: as §1
# GlcNAc(b1-6)GalNAc = biological target: GlcNAc(b1-6)GalNAc
# Procedure, shortened: as §1
# [5] = biological target: GlcNAc6S(b1-3)Gal(b1-4)GlcNAc
# Procedure, shortened: as §1
# Kdn(a2-3)Gal(b1-3)GalNAc = biological target: Kdn(a2-3)Gal(b1-3)GalNAc
# Procedure, shortened: as §1
# Kdn(a2-3)Gal(b1-3)GlcNAc = biological target: Kdn(a2-3)Gal(b1-3)GlcNAc
# Procedure, shortened: as §1
# Kdn(a2-3)Gal(b1-4)Glc = biological target: Kdn(a2-3)Gal(b1-4)Glc
# Procedure, shortened: as §1
# Kdn(a2-3)Gal(b1-4)GlcNAc = biological target: Kdn(a2-3)Gal(b1-4)GlcNAc
# Procedure, shortened: as §1
# [6] = biological target: Kdn(a2-3)Gal(b1-4)[Fuc(a1-3)]GlcNAc
# Procedure, shortened: as §1
# Kdn(a2-6)Gal(b1-4)GlcNAc = biological target: Kdn(a2-6)Gal(b1-4)GlcNAc
# Procedure, shortened: as §1
# [7] = biological target: Man(a1-2)Man(a1-2)Man(a1-3)Man
# Procedure, shortened: as §1
# [8] = biological target: Man(a1-2)Man(a1-2)Man(a1-6)[Man(a1-3)]Man
# Procedure, shortened: as §1
# Man(a1-2)Man(a1-3)Man = biological target: Man(a1-2)Man(a1-3)Man
# Procedure, shortened: as §1
# [9] = biological target: Man(a1-2)Man(a1-3)[Man(a1-2)Man(a1-6)]Man
# Procedure, shortened: as §1
# [10] = biological target: Man(a1-2)Man(a1-3)[Man(a1-2)Man(a1-6)]Man(a1-6)[Man(a1-2)Man(a1-2)Man(a1-3)]Man
# Procedure, shortened: as §1
# [11] = biological target: Man(a1-2)Man(a1-3)[Man(a1-2)Man(a1-6)]Man(a1-6)[Man(a1-2)Man(a1-2)Man(a1-3)]Man(b1-4)GlcNAc(b1-4)GlcNAc
# Procedure, shortened: as §1
# [12] = biological target: Man(a1-2)Man(a1-3)[Man(a1-6)]Man(a1-6)[Man(a1-2)Man(a1-3)]Man(b1-4)GlcNAc(b1-4)GlcNAc
# Procedure, shortened: as §1
# [13] = biological target: Man(a1-2)Man(a1-6)[Man(a1-3)]Man(a1-6)[Man(a1-2)Man(a1-2)Man(a1-3)]Man
# Procedure, shortened: as §1
# [14] = biological target: Man(a1-2)Man(a1-6)[Man(a1-3)]Man(a1-6)[Man(a1-2)Man(a1-2)Man(a1-3)]Man(b1-4)GlcNAc(b1-4)GlcNAc
# Procedure, shortened: as §1
# Man(a1-3)[Man(a1-6)]Man = biological target: Man(a1-3)[Man(a1-6)]Man
# Procedure, shortened: as §1
# [15] = biological target: Man(a1-3)[Man(a1-6)]Man(a1-6)[Man(a1-2)Man(a1-3)]Man(b1-4)GlcNAc(b1-4)GlcNAc
# Procedure, shortened: as §1
# [16] = biological target: Man(a1-3)[Man(a1-6)]Man(a1-6)[Man(a1-3)]Man
# Procedure, shortened: as §1
# [17] = biological target: Man(a1-3)[Man(a1-6)]Man(a1-6)[Man(a1-3)]Man(b1-4)GlcNAc(b1-4)GlcNAc
# Procedure, shortened: as §1
# [18] = biological target: Man(a1-3)[Man(a1-6)]Man(b1-4)GlcNAc(b1-4)GlcNAc
# Procedure, shortened: as §1
# [19] = biological target: Man(a1-3)[Man(a1-6)]Man(b1-4)GlcNAc(b1-4)[Fuc(a1-6)]GlcNAc
# Procedure, shortened: as §1
# Man(a1-6)Man = biological target: Man(a1-6)Man
# Procedure, shortened: as §1
# Man(b1-4)GlcNAc = biological target: Man(b1-4)GlcNAc
# Procedure, shortened: as §1
# MurNAc(b1-4)GlcNAc = biological target: MurNAc(b1-4)GlcNAc
# Procedure, shortened: as §1
# Neu5Ac(a2-3)Gal = biological target: Neu5Ac(a2-3)Gal
# Procedure, shortened: as §1
# [20] = biological target: Neu5Ac(a2-3)Gal(b1-3)GalNAc
# Procedure, shortened: as §1
# [21] = biological target: Neu5Ac(a2-3)Gal(b1-3)GalNAc(b1-3)Gal(a1-4)Gal(b1-4)Glc
# Procedure, shortened: as §1
# [22] = biological target: Neu5Ac(a2-3)Gal(b1-3)GalNAc(b1-4)[Neu5Ac(a2-3)]Gal(b1-4)Glc
# Procedure, shortened: as §1
# [23] = biological target: Neu5Ac(a2-3)Gal(b1-3)GalNAc(b1-4)[Neu5Ac(a2-8)Neu5Ac(a2-3)]Gal(b1-4)Glc
# Procedure, shortened: as §1
# [24] = biological target: Neu5Ac(a2-3)Gal(b1-3)GalNAc6S
# Procedure, shortened: as §1
# [25] = biological target: Neu5Ac(a2-3)Gal(b1-3)GlcNAc
# Procedure, shortened: as §1
binder,measurement,setting,value
B1,glycan array binding signal (z-score),[1],-0.713
same,glycan array binding signal (z-score),[2],0.678
same,glycan array binding signal (z-score),[3],-0.587
same,glycan array binding signal (z-score),[4],0.351
same,glycan array binding signal (z-score),GlcNAc(b1-6)GalNAc,0.4
same,glycan array binding signal (z-score),[5],-0.468
same,glycan array binding signal (z-score),Kdn(a2-3)Gal(b1-3)GalNAc,0.814
same,glycan array binding signal (z-score),Kdn(a2-3)Gal(b1-3)GlcNAc,-0.743
same,glycan array binding signal (z-score),Kdn(a2-3)Gal(b1-4)Glc,-0.801
same,glycan array binding signal (z-score),Kdn(a2-3)Gal(b1-4)GlcNAc,-0.781
same,glycan array binding signal (z-score),[6],-0.014
same,glycan array binding signal (z-score),Kdn(a2-6)Gal(b1-4)GlcNAc,-0.396
same,glycan array binding signal (z-score),[7],0.276
same,glycan array binding signal (z-score),[8],0.786
same,glycan array binding signal (z-score),Man(a1-2)Man(a1-3)Man,-0.383
same,glycan array binding signal (z-score),[9],-0.087
same,glycan array binding signal (z-score),[10],1.47
same,glycan array binding signal (z-score),[11],0.241
same,glycan array binding signal (z-score),[12],0.062
same,glycan array binding signal (z-score),[13],0.308
same,glycan array binding signal (z-score),[14],-0.019
same,glycan array binding signal (z-score),Man(a1-3)[Man(a1-6)]Man,-0.857
same,glycan array binding signal (z-score),[15],0.778
same,glycan array binding signal (z-score),[16],-0.538
same,glycan array binding signal (z-score),[17],-0.367
same,glycan array binding signal (z-score),[18],0.143
same,glycan array binding signal (z-score),[19],1.48
same,glycan array binding signal (z-score),Man(a1-6)Man,-0.63
same,glycan array binding signal (z-score),Man(b1-4)GlcNAc,-0.549
same,glycan array binding signal (z-score),MurNAc(b1-4)GlcNAc,0.448
same,glycan array binding signal (z-score),Neu5Ac(a2-3)Gal,-0.528
same,glycan array binding signal (z-score),[20],-0.721
same,glycan array binding signal (z-score),[21],0.241
same,glycan array binding signal (z-score),[22],-0.595
same,glycan array binding signal (z-score),[23],0.106
same,glycan array binding signal (z-score),[24],0.975
same,glycan array binding signal (z-score),[25],-0.608

# Random excerpt: 2 entries already listed
binder,measurement,setting,value
B1,glycan array binding signal (z-score),Neu5Ac(a2-3)Gal,-0.528
same,glycan array binding signal (z-score),Man(a1-6)Man,-0.63
